PubChem BioAssay AID1224830 | NIAID – 2016

Assay: 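Host factors that control LPS-induced TNF expression in human macrophages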 (primary screen)
System: human THP-1 monocytic leukaemia cells, TNF dual-luciferase reporter clone, PMA-differentiated to macrophage-like cells
Knock-down reagent: siRNA pool against human genes, 50 nM
Timing: LPS for 4 h, given about 3 days after siRNA transfection
Conditions: bacterial LPS (TLR4 ligand), 10 ng/ml
Measurement: 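Ratio of firefly to renilla light, scaled to the plate median and expressed as a robust z-score per replicate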
Reading the numbers: TNF reporter robust z-score: higher = stronger TNF reporter response to LPS
Active means: 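a well is active when its z-score exceeds 2.8 or falls below -1.5; control wells carry no call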
This is one part, drawn at random, of about 18,000 deposited reagents. About 2,900 of all reagents (16%) were called active. 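Calls are made per well; low scores hint the gene aids the LPS response, high scores that it dampens it.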 A number with no mark means an inactive call. Repeated entries: four replicate wells of each siRNA pool. Reagent sequences are not shown.

target gene	TNF reporter robust z-score
TUT7	-0.29
TUT7	-1.47
TUT7	-1.97 (active)
TUT7	-1.61 (active)
KRABD3	-0.73
KRABD3	-0.3
KRABD3	-0.07
KRABD3	-1.01
PTTG2	-0.15
PTTG2	0.51
PTTG2	-1.45
PTTG2	-1.75 (active)
OR4K17	-1.1
OR4K17	-0.18
OR4K17	-0.54
OR4K17	-0.07
KRTAP10-8	0.28
KRTAP10-8	0.81
KRTAP10-8	1.3
KRTAP10-8	-0.75
GPAT2	-0.32
GPAT2	-0.89
GPAT2	-1.31
GPAT2	-0.83
IGF2R	0.88
IGF2R	0.77
IGF2R	1.53
IGF2R	3.34 (active)
MLC1	0.14
MLC1	-0.22
MLC1	-0.32
MLC1	0.56
GABBR1	1.49
GABBR1	0.27
GABBR1	0.53
GABBR1	1.07
CRACR2A	-0.16
CRACR2A	0.82
CRACR2A	1.16
CRACR2A	-0.1
ARF3	2.89 (active)
ARF3	2.68
ARF3	1.88
ARF3	2.36
KRTAP17-1	2.39
KRTAP17-1	1.2
KRTAP17-1	2.83 (active)
KRTAP17-1	1.02

Targets above whose target name begins with I or i (4):
target gene	TNF reporter robust z-score
IGF2R	0.88
IGF2R	0.77
IGF2R	1.53
IGF2R	3.34 (active)
